Measured values reported in PubChem BioAssay AID1688 (National Center for Advancing Translational Sciences (NCATS), 2009).
About 2,400 (1.1%) of roughly 220,000 compounds were called active. Inconclusive results, whose numbers are uncertain, are shown with a selection of clear calls. The call rests on the fitted dose curve; in most records, active means well fitted inhibition curve with a large enough effect; inconclusive means small, poorly fitted or top-dose-only effect, or effect the other way; inactive means no such curve, though single readings can be large or run the other way. A potency beside an inconclusive call is a rough fit, not a confirmed value.

assay: qHTS Multiplex Assay to Identify Dual Action Probes in a Cell Model of Huntington: Aggregate Formation (GFP); conditions: PC12 HttQ103-GFP aggregates, Acumen cytometry, 40 h; activity change, negative = inhibition: at 46.1 µM (top of the series) unless noted; further: nearly all actives have a fitted effect of over 60% in size
How it was run: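 Huntingtin Q103 exon 1–GFP aggregates in induced PC12 cells (100 nM tebufenozide) were quantified by cytometry from lysates, with compounds dosed in titration.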
On the % scale 0 is the no-effect control and ±100 the full control effect; potency means the concentration at half of the fitted maximal effect.

Compound | Potency | activity change, negative = inhibition
COc1ccc(CNC(=O)c2cc(COc3c(F)cccc3F)on2)cc1OC | inconclusive: 22.4 µM [inhibitor, single point] | 
CN(C)C(=O)COc1ccc2cc(-c3ccccc3)c(=O)oc2c1 |  | inactive: -7.19%
CCCCc1c(C)c(C#N)c2[nH]c3ccccc3n2c1=O | inconclusive: 12.6 µM [inhibitor, single point] | 
CC(=O)Nc1ccc(NC(=O)c2ccc(NS(=O)(=O)c3cc(C(C)(C)C)cc(C)c3C)cc2)cc1 |  | inactive: 18.7%
COc1ccc(NC(=O)Nc2ccc(F)c(Cl)c2)cc1 | inconclusive: 35.5 µM [inhibitor, single point] | 
Cc1ccc(NC(=O)/C=C\C(=O)NCC(=O)O)cc1C |  | inactive: 8.33%
N#Cc1cc(-c2ccccc2)cnc1Sc1ccc(Cl)cc1 |  | inactive: -15.5%
CCn1c(SCc2ccccc2Cl)nc2ccccc21 | inconclusive: 2.82 µM [activator, single point] | 
COc1ccc(-c2nc3c(c4nnc(SC(C)C(=O)Nc5ccccc5)n24)COC(C)(C)C3)cc1 (stereo not given) | inconclusive: 0.0794 µM [inhibitor, full curve, poor fit] | 
O=C1C=C(Nc2ccccc2O)c2ccccc2C1=O | inconclusive: 35.5 µM [inhibitor, single point] | 
CC(=O)Nc1ccc(S(=O)(=O)N2CCN(c3cccc(C)c3C)CC2)cc1 | inconclusive: 11.2 µM [inhibitor, single point] | 
OC(CN1CCN(c2ccccn2)CC1)Cn1c2ccc(Cl)cc2c2cc(Cl)ccc21 (stereo not given) | inconclusive: 35.5 µM [inhibitor, single point] | 
O=C(CSc1nnc(-c2cccnc2)o1)c1cc2ccccc2oc1=O | inconclusive: 3.55 µM [activator, partial curve] | 
COC(=O)CN1C(=S)N(c2ccc(Cl)cc2)C(=O)C1CC(=O)Nc1ccc(Cl)cc1 (stereo not given) |  | inactive: -9%
O=C(CCC(=O)Nc1ccccc1)NNS(=O)(=O)c1ccccc1[N+](=O)[O-] | inconclusive: 11.2 µM [activator, partial curve] | 
C=CCc1cccc(C2Nc3ccccc3C(=O)N2O)c1O (stereo not given) | inconclusive: 35.5 µM [inhibitor, single point] | 
Cn1c(SCc2ccccc2)nnc1-c1ccco1 |  | inactive: -1.76%
O=C(c1cc([N+](=O)[O-])ccc1N1CCCCC1)N1CCc2ccccc21 | inconclusive: 35.5 µM [activator, single point] | 
CC(C)(C)N=C1C([N+](=O)[O-])=CC=C2C1=NC1(CCCCC1)N2O |  | inactive: -17.5%
CC(=O)Nc1ccc(Oc2cnc3ccccc3n2)cc1 | active: 11.2 µM | 
COC(=O)N/N=C/c1sc(N2CCCCC2)nc1-c1cccs1 | inconclusive: 3.98 µM [activator, partial curve] | 
c1ccc(-c2csc3ncnc(NCCN4CCOCC4)c23)cc1 | inconclusive: 31.6 µM [inhibitor, single point] | 
O=C(NC1CC1)c1cccc(Nc2ccc(-c3ccc4c(c3)OCCO4)nn2)c1 | inconclusive: 12.6 µM [inhibitor, partial curve] | 

Compound | Potency | activity change, negative = inhibition
O=[N+]([O-])c1cc(/C=N/NC(=S)Nc2ccccc2Cl)ccc1Cl |  | inactive: 13.6%
NC(=O)C(c1ccc(Cl)cc1)c1ccc(Sc2ccccc2)nn1 (stereo not given) | inconclusive: 11.2 µM [inhibitor, single point] | 
O=C(Nc1ccc(S(=O)(=O)N2CCc3ccccc32)cc1)c1ccc2c(c1)OCO2 | inconclusive: 35.5 µM [inhibitor, partial curve, poor fit] | 
Cc1ccc(N(CC(=O)Nc2ccc(-c3nc4ccc(C)cc4s3)cc2)S(C)(=O)=O)cc1 | inconclusive: 31.6 µM [inhibitor, single point] | 
COC(=O)c1ccc(NC(=O)C23CC4CC(C2)CC(n2cncn2)(C4)C3)cc1 | inconclusive: 5.62 µM [activator, single point] | 
N#Cc1c(-c2ccccc2)c(-c2ccccc2)nn(CC(=O)NNC(=O)Nc2ccc(Cl)c(Cl)c2)c1=O | inconclusive: 35.5 µM [inhibitor, single point] | 
O=C(NNC(=O)c1cccnc1)NC12CC3CC(CC(C3)C1)C2 |  | inactive: 2.62%
CCCCC(=O)OCC(=O)c1[nH]c(C)c(C(=O)OCC)c1C |  | inactive: -1.84%
CC(C)c1ccc(OCC(=O)NC(Cc2c[nH]c3ccccc23)C(=O)O)cc1 (stereo not given) | inconclusive: 1.58 µM [activator, single point] | 
O=C(O)CCc1nnc(SCC(=O)Nc2ccc(Br)cc2)[nH]c1=O | inconclusive: 20 µM [activator, partial curve] | 
O=c1c2ccc(Cl)cc2nc(-c2ccc([N+](=O)[O-])cc2)n1O | active: 6.31 µM | 
CCCCn1c(-c2csc3c2CCC(C)C3)n[nH]c1=S (stereo not given) | inconclusive: 14.1 µM [inhibitor, single point] | 
Cc1ccc(S(=O)(=O)/N=C2/C=C(C3C(=O)CC(C)(C)CC3=O)C(=O)c3ccccc32)cc1 | inconclusive: 10 µM [inhibitor, partial curve, poor fit] | 
CCOC(=O)CC(=O)CSc1ccc2nnc(-c3ccc(F)cc3)n2n1 | inconclusive: 35.5 µM [inhibitor, single point] | 
CCC(C)N1C(=O)S/C(=C/c2ccc(Sc3nc4ccccc4[nH]3)o2)C1=O (stereo not given) | active: 10 µM | 
CSc1nc(N(C)NC(=O)c2cccc(C)c2)c2ccccc2n1 | active: 1.26 µM | 
Cc1cc(C)cc(C(=O)OCC(=O)NCc2cccs2)c1 |  | inactive: 3.79%
O=C(O)/C=C/C(=O)c1ccc2c(c1)NC(=O)CO2 |  | inactive: -4.29%
COC(=O)C1=C(C)N(Cc2ccccc2)C(=O)N[C@H]1c1ccccc1 |  | inactive: -5.14%
Cc1cc2c(N=O)c(NO)ccc2[nH]1 | inconclusive: 5.62 µM [inhibitor, single point] | 
COc1ccc(CCN2CCC(Nc3nc4ccccc4n3Cc3ccc(F)cc3)CC2)cc1 | inconclusive: 35.5 µM [inhibitor, single point] | 
CCC1(C)Cc2ccccc2-c2nc(NCCO)[nH]c(=O)c21 (stereo not given) | inconclusive: 0.794 µM [activator, full curve, poor fit] | 
